In PubChem BioAssay AID1347075 (National Center for Advancing Translational Sciences (NCATS), 2019):
The whole screen tested about 400,000 compounds, of which about 5,500 (1.4%) were called active. The inconclusive results got no clear call from the source; some entries with a clear call stand among them for comparison. Calls come from the whole dose curve; as a rule, active = well fitted cell-killing curve with a large enough effect; inconclusive = small, poorly fitted or top-dose-only effect, or effect the other way; inactive = flat fitted curve, though single readings scatter. Where the call is inconclusive, the potency comes from a doubtful curve fit.

Test: qHTS assay for MDR1-selective chemotherapeutics: Primary screen using the parental adenocarcinoma cell KB-3-1; note: nearly all actives have a fitted effect of over 60% in size
Conditions: KB-3-1 viability, CellTiter-Glo ATP luminescence, 72 h; activity change, negative = cytotoxic: at 46.1 µM (top of the series)
Procedure, shortened: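 Multi-concentration cytotoxicity screen in KB-3-1 cells grown in DMEM lacking phenol red with 10% FBS. After 72 h at 37 °C with compound, ATP-dependent luminescence was recorded.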
% is set by controls: 0 for no effect and ±100 for the full control effect; potency is the fitted concentration of half-maximal effect.

| Structure (SMILES) | Potency | activity change, negative = cytotoxic |
| --- | --- | --- |
| Cc1c(C(=O)OCC2CCCO2)[nH]c2c1C(=O)CC(c1ccco1)C2 (centres undefined) | active: 3.26 µM | – |
| CCS(=O)(=O)c1ccc(OC)c(N=Nc2ccc(O)c3ncccc23)c1 | inconclusive: 20.6 µM [cytotoxic, single point] | – |
| c1cc(-c2cc3nc(NC4CCCCC4)ccn3n2)ccc1OCCN1CCOCC1 | inconclusive: 29.1 µM [cytotoxic, single point] | – |
| O=C(NCc1ccc(F)cc1)C1CCN(c2ncnc3c2nc2n3CCCCC2)CC1 | – | inconclusive: -12.5% |
| Cc1ccc2c(c1)C(c1ccc(N3CCOCC3)cc1)=NNC(c1cccs1)=N2 | inconclusive: 29.1 µM [cytotoxic, single point] | – |
| CCN1C(=O)C(CC(=O)Nc2ccc(OC)cc2)N(CCCN2CCN(c3ccc(F)cc3)CC2)C1=S (centres undefined) | inconclusive: 29.1 µM [cytotoxic, single point] | – |
| CCC(=O)N1CCN(c2ccccc2NC(=O)c2ccc([N+](=O)[O-])o2)CC1 | inconclusive: 16.4 µM [cytotoxic, single point] | – |
| CC(C)CCCCCCCCCCCCC(=O)NCC(=O)NC1C(C)OC(Nc2ncnc3nc[nH]c23)C(O)C1O (centres undefined) | active: 0.0103 µM | – |
| Nc1nc(Nc2ccccc2F)sc1C(=O)c1ccccc1 | active: 10.3 µM | – |
| Cc1ccc2[nH]c(-c3ccccc3)cc(=O)c2c1 | active: 0.291 µM | – |
| COC(=O)c1c(-c2ccc(OC)c(OC)c2)csc1N | – | inactive: -2.48% |
| O=C(Nc1ccccc1N1CCCCC1)c1ccc(-c2ccc(Cl)cc2)o1 | active: 8.2 µM | – |
| Cc1ncnc2nc[nH]c12 | active: 3.26 µM | – |
| O=C(NC1=NCCS1)c1ccc(Cl)c(S(=O)(=O)N2CCc3ccccc32)c1 | inconclusive: 20.6 µM [cytotoxic, single point] | – |
| CN1CCN(c2ccc(S(=O)(=O)N3CCCCC3)cc2NC(=O)c2ccc3ccccc3c2)CC1 | inconclusive: 29.1 µM [cytotoxic, single point] | – |
| O=C(Nc1ccccc1Cl)c1ccccc1 | – | inactive: -4.35% |
| CCOC(=O)c1[nH]c(C)c(CCC(=O)N2CCN(c3cccc(C)c3C)CC2)c1C | inconclusive: 23.1 µM [cytotoxic, partial curve, poor fit] | – |
| CCCCCCCCOC(=O)C1=C(C)Nc2nnnn2C1c1cccs1 (centres undefined) | inconclusive: 18.4 µM [cytotoxic, single point] | – |
| CCOc1ccc(N=Cc2ccc(N(C)C)cc2)c(O)c1 | inconclusive: 29.1 µM [cytotoxic, single point] | – |
| NC1=C(Cl)C(=O)c2ccccc2C1=O | inconclusive: 11.6 µM [cytotoxic, partial curve, poor fit] | – |
| CCOc1ccc2nc(C)cc(Nc3ccc4c(c3)OCCO4)c2c1 | inconclusive: 29.1 µM [cytotoxic, single point] | – |
| CC(C)c1cc(NC(=O)c2ccccc2)cc(C(C)C)c1O | inconclusive: 0.92 µM [cytotoxic, full curve] | – |
| COc1cc(/C=C2\SC(=S)N(C(C(=O)O)c3ccccc3)C2=O)ccc1O (centres undefined) | – | inactive: 11.5% |

| Structure (SMILES) | Potency | activity change, negative = cytotoxic |
| --- | --- | --- |
| O=C1ON=C(c2ccccc2)/C1=C/c1ccc(-c2ccccc2[N+](=O)[O-])o1 | inconclusive: 9.2 µM [cytotoxic, partial curve, poor fit] | – |
| COc1cccc(CCNC(=O)CCc2nnc(-c3ccc4c(c3)OCO4)o2)c1 | inconclusive: 29.1 µM [rising, single point] | – |
| Cc1ccc(CSc2nc(-c3ccc(C(C)(C)C)cc3)nc3cc(=O)[nH]n23)cc1 | – | inactive: -9.53% |
| Cc1cc(N2CCCCC2)n2nc(C)c(-c3ccccc3)c2n1 | inconclusive: 29.1 µM [cytotoxic, single point] | – |
| OC(c1ccc(F)cc1)c1nc(-c2cc3ccccc3o2)cs1 (centres undefined) | inconclusive: 18.4 µM [cytotoxic, single point] | – |
| CCCCCCCCN1C(=O)[C@H](CC(=O)NCc2ccc(OC)c(OC)c2)C[C@@]2(C(=O)OCC)CCCC=C12 | inconclusive: 29.1 µM [cytotoxic, single point] | – |
| COc1ccc(C(=O)Oc2cc(/C=N/NC(N)=S)ccc2OC)cc1 | – | inactive: -2.05% |
| COc1cccc(CN2C(=O)[C@H]3Cc4c([nH]c5ccccc45)C(C)(C)N3C2=O)c1 | – | inactive: -23.9% |
| Cc1ccc(-c2csc(NC(=O)C[n+]3cc(-c4ccc(C)cc4)n4c3CCC4)n2)cc1 | inconclusive: 20.6 µM [cytotoxic, single point] | – |
| COc1ccc(N2CCn3c2nc2c3c(=O)n(CCCc3ccccc3)c(=O)n2C)c(OC)c1 | inconclusive: 9.2 µM [cytotoxic, partial curve] | – |
| O=S(=O)(c1ccc(-c2csc(Nc3ccc(Br)cc3)n2)cc1)N1CCCC1 | inconclusive: 2.31 µM [cytotoxic, full curve, poor fit] | – |
| COc1ccc(NC(=O)C2(C)Cc3c(-c4ccc5c(c4)OCO5)ccnc3O2)cn1 (centres undefined) | active: 5.8 µM | – |
| COc1ccc(Cn2ccc3nc(C)c(C(=O)N4CCN(c5ccccc5OC)CC4)cc3c2=O)cc1 | inconclusive: 0.0082 µM [rising, full curve] | – |
| COc1ccc(CNS(=O)(=O)c2ccc3c(c2)CCN3C(=O)C2CCC2)cc1 | inconclusive: 20.6 µM [cytotoxic, single point] | – |
| C=CCn1c(SCC(=O)c2[nH]c(C)c(C(=O)OC)c2C)nc2scc(-c3ccc(OC)c(OC)c3)c2c1=O | active: 4.11 µM | – |
| CCCCCCCCN1C(=O)[C@H](CC(=O)NCc2ccccc2)C[C@@]2(C(=O)OC)CCCCC=C12 | inconclusive: 29.1 µM [cytotoxic, single point] | – |
| CCOc1ccccc1C(=O)OCC(=O)NCCNC(=O)COC(=O)c1ccccc1OCC | inconclusive: 29.1 µM [rising, single point] | – |
| O=C1ON=C(c2cccc([N+](=O)[O-])c2)/C1=C/c1ccc(O)cc1 | inconclusive: 29.1 µM [cytotoxic, single point] | – |
| CCCC(C(=O)NCCC(C)C)N(Cc1ccccc1)C(=O)c1snc(C(N)=O)c1N (centres undefined) | – | inactive: -8.71% |
| COc1ccc(N(CC(=O)Nc2ccccc2OC)S(=O)(=O)c2ccccc2)cc1Cl | inconclusive: 29.1 µM [cytotoxic, single point] | – |
| COC(=O)c1c(C)oc2ccc(N(C(=O)c3ccncc3)S(=O)(=O)c3ccc4ccccc4c3)cc12 | inconclusive: 25.9 µM [cytotoxic, single point] | – |
| COC(=O)c1cc(OC)nc2c1c(=O)n(C)c(=O)n2C | inconclusive: 20.6 µM [rising, partial curve] | – |
| Cc1ccc(OCCCCN(C)Cc2ccccc2)c(Br)c1 | – | inactive: -19.1% |

| Structure (SMILES) | Potency | activity change, negative = cytotoxic |
| --- | --- | --- |
| CC(C)C1N=C2c3ccccc3N=C(SCC(=O)NCc3ccccc3Cl)N2C1=O (centres undefined) | inconclusive: 4.61 µM [cytotoxic, partial curve, poor fit] | – |
| CCOP(=O)(OCC)C(Nc1ccccn1)c1ccccc1 (centres undefined) | – | inactive: -1.85% |
| O=C(C1=C[C@@H](C2CCCCC2)C[C@@H](OCc2ccc(CO)cc2)O1)N1CCN(Cc2ccccc2)CC1 | inconclusive: 29.1 µM [cytotoxic, single point] | – |
| O=C([C@@H]1CC=C[C@@H]2CCN(C3CCCCC3)C(=O)[C@@H]21)N1CCOCC1 | – | inactive: 3.9% |
| Cc1noc(C)c1COc1ccccc1C(=O)N1CCN(c2cccc(C(F)(F)F)c2)CC1 | inconclusive: 5.8 µM [cytotoxic, full curve, poor fit] | – |
| COC(=O)[C@@]1(Cc2ccc(F)cc2)[C@H]2c3cc(C(=O)N4CCCC4)n(Cc4ccc(OC(F)(F)F)cc4)c3C[C@H]2CN1C(=O)c1ccccc1 | inconclusive: 23.1 µM [cytotoxic, single point] | – |
| N=c1cc(C2(O)CCCCC2)n2c(nc3ccccc32)s1 | inconclusive: 29.1 µM [cytotoxic, single point] | – |
| Cc1ccn(-c2ccc(NC(=O)c3cccs3)cc2)n1 | active: 20.6 µM | – |
| Cc1[nH]n(-c2ccccc2)c(=O)c1/C=N/NC(=O)COc1ccccc1[N+](=O)[O-] | inconclusive: 18.4 µM [cytotoxic, single point] | – |
| O=C(Nc1nc2ccccc2[nH]1)c1cccc(Br)c1 | inconclusive: 29.1 µM [cytotoxic, single point] | – |
| CC(C)NC(=O)N(C)C[C@@H]1OCc2cn(nn2)CCCC(=O)N([C@H](C)CO)C[C@H]1C | – | inactive: 9.48% |
| O=C(NC1CCN(Cc2ccccc2)CC1)c1cc(S(=O)(=O)Nc2ccc(F)cc2)ccc1Cl | inconclusive: 23.1 µM [cytotoxic, single point] | – |
| CCOC(=O)c1c(C)[nH]c(C(=O)COC(=O)c2ccncc2)c1C | inconclusive: 3.26 µM [cytotoxic, partial curve, poor fit] | – |
| COC(=O)c1c(O)c2ccccc2[nH]c1=O | – | inactive: -5.93% |
| CC(C)(C)C(=O)N1CCN(c2ccc(Cl)cc2[N+](=O)[O-])CC1 | – | inactive: 12.5% |
| OCCCNc1ncnc2c1ncn2[C@H]1CN(C2CCCC2)C[C@@H](CO)O1 | – | inactive: 0% |
| O=C1c2ccccc2-c2c1cccc2C(=O)N1CCCCCC1 | – | inconclusive: -18.9% |
| Cc1ccc(C(=O)Nc2sc3c(c2C(=O)NCc2ccco2)CCCC3)cc1 | – | inactive: -28.1% |
| CCOC(=O)C1CCN(S(=O)(=O)c2ccc3c(c2)CCCN3C(C)=O)CC1 | – | inactive: -4.71% |
| CCn1c(=O)c2cc(C(=O)NCc3cccs3)sc2c2ccccc21 | – | inactive: 2.92% |
| CCOc1ccc(CNC(=O)C2=Cc3cc(Br)ccc3OC2)cc1OC | – | inactive: -1.23% |
| COc1ccc(S(=O)(=O)N2CCCC2)c(Cl)c1Cl | inconclusive: 29.1 µM [cytotoxic, single point] | – |
| O=C(NCCc1ccccc1)C(=O)NCC1OCCN1S(=O)(=O)c1ccc([N+](=O)[O-])cc1 (centres undefined) | – | inactive: 2.13% |

Laid out differently: 4 of the compounds above
Structure (SMILES)	Potency	activity change, negative = cytotoxic
N=c1cc(C2(O)CCCCC2)n2c(nc3ccccc32)s1	inconclusive: 29.1 µM [cytotoxic, single point]	–
Cc1ccn(-c2ccc(NC(=O)c3cccs3)cc2)n1	active: 20.6 µM	–
Cc1[nH]n(-c2ccccc2)c(=O)c1/C=N/NC(=O)COc1ccccc1[N+](=O)[O-]	inconclusive: 18.4 µM [cytotoxic, single point]	–
O=C(Nc1nc2ccccc2[nH]1)c1cccc(Br)c1	inconclusive: 29.1 µM [cytotoxic, single point]	–
